Results are given in words; binding and its absence hold for the method and conditions named. A result given as binding can be weak or reduced; the word gives no strength. Tags and fused reporters may be left off the sequences shown.
Molecular target: glutathione S-transferase (GST)-fused PGAM5 (not stated (human or mouse cDNA cloned)) (UniProt Q96HS1)
Assay: pull-down; GST pull-down with GST-PGAM5 on glutathione-agarose beads and His-MARCH2; blots with anti-GST and anti-His; both purified

Chains of the proteins cited; added tags and fusions are not shown. Lines headed by an entry give the natural chain unless they say otherwise; changes in a name come on top.
UniProt Q96HS1: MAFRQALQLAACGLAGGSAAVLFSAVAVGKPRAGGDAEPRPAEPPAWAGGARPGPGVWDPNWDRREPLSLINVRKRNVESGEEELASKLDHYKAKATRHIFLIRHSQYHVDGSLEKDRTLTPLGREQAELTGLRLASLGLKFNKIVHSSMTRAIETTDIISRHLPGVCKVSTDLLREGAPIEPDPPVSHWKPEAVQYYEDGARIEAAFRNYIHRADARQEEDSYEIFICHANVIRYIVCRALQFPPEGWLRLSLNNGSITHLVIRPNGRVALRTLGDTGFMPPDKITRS

B1: His-MARCH2 (enzyme, UniProt Q9P0N8 1-246)
chain: MTTGDCCHLPGSLCDCSGSPAFSKVVEATGLGPPQYVAQVTSRDGRLLSTVIRALDTPSDGPFCRICHEGANGECLLSPCGCTGTLGAVHKSCLEKWLSSSNTSYCELCHTEFAVEKRPRPLTEWLKDPGPRTEKRTLCCDMVCFLFITPLAAISGWLCLRGAQDHLRLHSQLEAVGLIALTIALFTIYVLWTLVSFRYHCQLYSEWRKTNQKVRLKIREADSPEGPQHSPLAAGLLKKVAEETPV
  binding: binds

— article PMC10897310
